Source: paper PMC5945058

Molecular target: CT2-YFP (YFP inserted at an internal position), expressed in N. benthamiana (maize)
Test: co-IP; co-expression in N. benthamiana leaves; Triton X-100-solubilized microsomal membrane fractions; anti-GFP magnetic beads capture CT2-YFP or CT2^CA-YFP, 30 min at 4°C; FEA2-Myc detected with anti-Myc

binding: binds
B1: … EAR2 (FEA2), LRR receptor-like protein, 6xMyc-tagged, expressed in N. benthamiana (receptor, UniProt Q940E8 29-613)
chain: ASTDRAALLAFRASLSPPSRAALSSWSGPLSPSWLGVSLHPATAPAPSVTTPSVAELSLRGLNLTGVIPAAPLALLRRLRTLDLSANALSGELPCSLPRSLLALDLSRNALSGAVPTCLPSSLPALRTLNLSANFLRLPLSPRLSFPARLAALDLSRNAISGAVPPRIVADPDNSALLLLDLSHNRFSGEIPAGIAAVRSLQGLFLADNQLSGDIPPGIGNLTYLQVLDLSNNRLSGSVPAGLAGCFQLLYLQLGGNQLSGALRPELDALASLKVLDLSNNKISGEIPLPLAGCRSLEVVDLSGNEISGELSSAVAKWLSLKFLSLAGNQLSGHLPDWMFSFPLLQWLDLSSNKFVGFIPDGGFNVSEVLNGGGGQGTPSESVLPPQLFVSASVDTVSWQLDLGYDVQATTGIDLSGNELCGEIPEGLVDMKGLEYLNLSCNYLAGQIPAGLGGMGRLHTLDFSHNGLSGEVPPGIAAMTVLEVLNLSYNSLSGPLPTTKFPGALAGNPGICSGKGCSENARTPEGKMEGSNHRGWLGGWHGENGWVSLGAFCISTMTSFYVSLATLLCSSNARNFVFRPVRVEY

No constants are given. Whether binding was seen depends on the method and setting. In cells and extracts the contact can be indirect. Binding can be weak; no strength is given. Sequences can lack the tags named with a protein.
